Record: PubChem BioAssay AID504784 (Drosophila RNAi Screening Center, 2011)
The screen tested about 17,000 reagents; this is a random part of those that have a named target and a result. 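Each column is one replicate's B-score; the combined score over replicates was not deposited, so single values may mislead.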 The numbers tell different reagents against one gene apart. Names joined by + are all predicted targets of the reagent. Not all columns of the deposit are shown.

- Purpose: 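Fly genes whose silencing alters how much lipid cells keep in droplets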 (primary screen)
- System: Drosophila Kc167 embryonic cells
- Reagents: long dsRNA against Drosophila genes, about 250 ng dsRNA per well
- Duration: 4 days
- Conditions: cells fed 400 µM oleic acid bound to BSA
- Detection: 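Microscope images give a droplet-to-nucleus area ratio, taken as log and converted to a screen-wide B-score; higher values mean greater lipid storage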
- Scale: droplet/nuclear area B-score: higher = more stored lipid (overstorage)

gene | dsRNA no. | droplet/nuclear area B-score, replicate 1
Irp-1B (GeneID 41269) | 1 | -0.0561
twr (GeneID 40815) | 1 | 0.413
Datp (GeneID 318908) | 1 | 0.217
Svil (GeneID 38306) | 1 | -0.409
Svil (GeneID 38306) | 2 | -0.638
Svil (GeneID 38306) | 3 | 1.45
Svil (GeneID 38306) | 4 | -1.48
ham (GeneID 35135) | 1 | -0.241
ham (GeneID 35135) | 2 | -0.282
ham (GeneID 35135) | 3 | 0.48
CG15237 (GeneID 35591) | 1 | -0.151
Gem4b + Gem4c + Glos | 1 | 0.607
Mtl (GeneID 43319) | 1 | -0.196
htk (GeneID 32877) | 1 | -0.831
htk (GeneID 32877) | 2 | 0.895
Pka-C1 (GeneID 34284) | 1 | 1.54
Pka-C1 (GeneID 34284) | 2 | 0.643
Usf (GeneID 31384) | 1 | -0.676
Nup50 (GeneID 35784) | 1 | -1.87
CG1622 (GeneID 32282) | 1 | 1.36
CG4404 (GeneID 32241) | 1 | 0.675
CG13908 (retired record) (GeneID 38110) | 1 | -0.455
CG6333 (GeneID 39953) | 1 | -0.335
CG11883 (GeneID 36121) | 1 | 0.0389
mIF2 (GeneID 43382) | 1 | 0.105
CG14743 (GeneID 35860) | 1 | -0.106
pigeon (GeneID 35200) | 1 | -2.04
CG31816 (GeneID 318960) | 1 | -1.24
Vm26Aa (GeneID 33829) | 1 | 0.903
CG7530 (GeneID 41784) | 1 | -0.193
spz (GeneID 43256) | 1 | 0.632

Part of the list above in another layout.
| gene | dsRNA no. | droplet/nuclear area B-score, replicate 1 |
| --- | --- | --- |
| ham (GeneID 35135) | 2 | -0.282 |
| ham (GeneID 35135) | 3 | 0.48 |
| CG15237 (GeneID 35591) | 1 | -0.151 |
| Gem4b + Gem4c + Glos | 1 | 0.607 |
| Mtl (GeneID 43319) | 1 | -0.196 |
| htk (GeneID 32877) | 1 | -0.831 |
| htk (GeneID 32877) | 2 | 0.895 |

Further reagents follow:
gene | dsRNA no. | droplet/nuclear area B-score, replicate 1
Cpr65Az (GeneID 38712) | 1 | -1.12
Cpr65Az (GeneID 38712) | 2 | -0.688
hiw (GeneID 32429) | 1 | 0.0275
hiw (GeneID 32429) | 2 | 1.64
CG12236 (GeneID 31523) | 1 | 2.69
CG12236 (GeneID 31523) | 2 | -0.734
Dgk (GeneID 35738) | 1 | -2.63
Dgk (GeneID 35738) | 2 | -0.332
Dgk (GeneID 35738) | 3 | -0.96
Dgk (GeneID 35738) | 4 | -0.111
Dgk (GeneID 35738) | 5 | 0.377
lectin-33A (GeneID 53516) | 1 | 0.556
lectin-33A (GeneID 53516) | 2 | 0.454
mew (GeneID 32275) | 1 | -0.781
mew (GeneID 32275) | 2 | -0.229
CG16986 (GeneID 38325) | 1 | -0.0289
Plc21C (GeneID 33204) | 1 | -1.96
Gr22c (GeneID 117499) | 1 | -0.916
CG34176 (GeneID 5740391) | 1 | 0.275
beat-IIa (GeneID 42086) | 1 | -0.36
beat-IIa (GeneID 42086) | 2 | 1.02
Src64B (GeneID 48973) | 1 | 1.46
ChLD3 (GeneID 35002) | 1 | -0.138
Gnf1 (GeneID 40607) | 1 | -1.9
Cpr65Ec (GeneID 38775) | 1 | -0.42
